Assay results reported in patent publication US20200339670A1.
Results are given in words; binding and its absence hold for the method and conditions named. Some entries that bind do so weakly or less than the wild type.

Chains of the proteins cited; added tags and fusions are not shown. Residues count along the entry.
UniProt P05067, residues 672-713: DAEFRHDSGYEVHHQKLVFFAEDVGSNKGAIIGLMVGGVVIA
UniProt Q9ULZ3: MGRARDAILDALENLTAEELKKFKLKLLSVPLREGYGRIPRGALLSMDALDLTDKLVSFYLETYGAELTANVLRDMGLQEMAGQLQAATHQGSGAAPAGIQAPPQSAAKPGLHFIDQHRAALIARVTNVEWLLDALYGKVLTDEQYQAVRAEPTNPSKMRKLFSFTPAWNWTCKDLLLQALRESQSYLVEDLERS

What was measured:
[1] = molecular target: Aβ in brains of Alzheimer patients (human) (UniProt P05067); experiment: immunoprecipitation of ASC, Western blot detection of Aβ
[2] = molecular target: Aβ in brains of Alzheimer patients (human) (UniProt P05067); experiment: immunohistochemistry of brain sections of AD cases
[3] = molecular target: Aβ in brains of Alzheimer patients (human) (UniProt P05067); experiment: immunoprecipitation from human brain homogenates

Measured: binding

ASC (ASC specks) in brains of Alzheimer patients (from UniProt Q9ULZ3 1-195)
binds: all assays above
